Cell viability data for 81 compounds are collected here from the supplement of paper PMC3682954.

Molecules are shown by their SMILES. Where “and” joins values, the source holds several entries; their conditions need not be identical. Equal values may be shown once. Where a name gives a salt, the structure may show the parent alone. ± gives the standard deviation of the averaged measurements. Some of the results follow. Single values are uncertain, as repeats are few or missing.

In the experiment the test system is RAW 264.7. Description: cell viability (MTT) relative to vehicle control; higher = more viable cells. As to conditions: stimulus: HMGB1 5 ug/ml, 18 h.
[1] abbreviates: compound concentration: 1 ug/ml.

For orientation: cell viability means a read-out of living cells in per cent, often relative to untreated cells. Regarding `NC(=O)OCC(O)COc1ccc(Cl)cc1` (stereo unspecified) [Chlorphensin carbamate], the cell viability (compound concentration: 3 uM) came out at 115%. `CC1(C)S[C@@H]2[C@H](NC(=O)[C@H](N)c3ccccc3)C(=O)N2[C@H]1C(=O)OC1OC(=O)c2ccccc21` (stereo partly specified) [Talampicillin hydrochloride]: the cell viability (compound concentration: 3 uM) came to 98.6%. With `Oc1cc(O)c2c(c1)O[C@H](c1ccc(O)c(O)c1)[C@@H](O)C2` (racemic) [Catechin-(+,-) hydrate], where the note is “compound concentration: 3 uM”, the cell viability was 95.8%.

For the compound `CC1(C)[C@@H](O)CC[C@]2(C)[C@H]3C(=O)C=C4[C@@H]5C[C@@](C)(C(=O)O)CC[C@]5(C)CC[C@@]4(C)[C@]3(C)CC[C@@H]12` [Enoxolone], the cell viability under setting [1] amounted to 86%. As to `CC1(C)[C@@H](O)CC[C@]2(C)[C@H]3C(=O)C=C4[C@@H]5C[C@@](C)(C(=O)O)CC[C@]5(C)CC[C@@]4(C)[C@]3(C)CC[C@@H]12`, the cell viability (compound concentration: 3 uM) was found to be 112%. For `COc1ccc2c(c1)c(CC(=O)O)c(C)n2Cc1ccc(Cl)cc1` [1-(4-Chlorobenzyl)-5-methoxy-2-methylindole-3-acetic acid], for the setting “compound concentration: 3 uM”, the cell viability was 97.7%. On the same count and under the same terms, the result for `C[C@]12CCC(=O)C=C1C=C[C@@H]1[C@@H]2CC[C@@]2(C)[C@H]1CC[C@@]21CCC(=O)O1` reads 105%; that for `C[C@]12CCC(=O)C=C1C=C[C@@H]1[C@@H]2CC[C@@]2(C)[C@H]1CC[C@@]21CCC(=O)O1` [Canrenone], 85.6 ± 16%; that for `COC(=O)[C@@H](N)Cc1ccc(O)c(O)c1` [L-3,4-Dihydroxyphenylalanine methyl ester hydrochloride], 114%. For `Cc1c(NC(C)C)c(=O)n(-c2ccccc2)n1C`, the cell viability (compound concentration: 3 uM) was 110%. On the same count and under the same terms, for `Cc1c(NC(C)C)c(=O)n(-c2ccccc2)n1C` [Isopyrin hydrochloride] the value was 135%. Same read-out and setting: the result for `COc1cccc(N(C)C(=S)Oc2ccc3c(c2)CCCC3)n1` [Liranaftate] reads 132%.

As to `NCCc1cc[nH]n1` [Betazole hydrochloride], the cell viability (compound concentration: 3 uM) turned out to be 91.3%. On the same count and under the same terms, for `CCCNC(C)C(=O)Nc1c(C)csc1C(=O)OC` (stereo unspecified) [Articaine hydrochloride] the value was 78%; for `COc1cc(/C=C(\C#N)C(=O)c2ccc(O)c(O)c2)cc(I)c1O` [I-OMe-Tyrphostin AG 538], 119%. Take `NC(Cc1cnc[nH]1)C(=O)NC(CO)C(=O)O` (stereo unspecified): under setting [1], the cell viability is 89.9%. Take `CC(C[N+](C)(C)C)OC(N)=O` (stereo unspecified): the cell viability (compound concentration: 3 uM) amounted to 108%. Same read-out and setting: for `CC(C[N+](C)(C)C)OC(N)=O` (stereo unspecified) [Bethanechol chloride] the value was 97.4 ± 5.6%; for `CC(C[N+](C)(C)C)OC(N)=O` (stereo not drawn) [Carbamyl-beta-methylcholine], 101%. On the same count and under the same terms, the result for `NCCC(O)(P(=O)(O)O)P(=O)(O)O` [Pamidronic acid] reads 106%; that for `N[C@@H](Cc1c[nH]cn1)C(=O)O` [L-Histidine hydrochloride], 102%. With `CC(=O)Oc1cc(OC(C)=O)c2c(=O)cc(-c3ccc(OC(C)=O)c(OC(C)=O)c3)oc2c1`, under setting [1], the cell viability was 95.4%. Turning to `Cc1cn([C@H]2C[C@H](N=[N+]=[N-])[C@@H](CO)O2)c(=O)[nH]c1=O` [Zidovudine, AZT], the cell viability (compound concentration: 3 uM) was determined as 85.1%. As for `Cc1cn([C@H]2C[C@H](N=[N+]=[N-])[C@@H](CO)O2)c(=O)[nH]c1=O` [3'-Azido-3'-deoxythymidine], the cell viability (compound concentration: 3 uM) is 103 ± 8%. Same read-out and setting: for `Cc1cn([C@H]2C[C@H](N=[N+]=[N-])[C@@H](CO)O2)c(=O)[nH]c1=O` the value was 103%; for `COc1ccc([C@@H]2Sc3ccccc3N(CCN(C)C)C(=O)[C@@H]2OC(C)=O)cc1` [Diltiazem], 102%. On the same count and under the same terms, for `COc1ccc([C@@H]2Sc3ccccc3N(CCN(C)C)C(=O)[C@@H]2OC(C)=O)cc1` the value was 98.7%; for `COc1ccc([C@@H]2Sc3ccccc3N(CCN(C)C)C(=O)[C@@H]2OC(C)=O)cc1` [Diltiazem hydrochloride], 106 ± 2.8%; for `CN(C)CCN(Cc1ccc(Cl)cc1)c1ccccn1` [Chloropyramine hydrochloride], 101%. The same measure, in the same setting: for `CN(C)CCN(Cc1ccc(Cl)cc1)c1ccccn1` the value was 107%; for `NS(=O)(=O)Cc1noc2ccccc12` [Zonisamide], 105 ± 5.1%. In the case of `CC(C)[C@@H](C)/C=C/[C@@H](C)[C@H]1CC[C@H]2/C(=C/C=C3\C[C@@H](O)CC[C@@H]3C)CCC[C@]12C` [dihydrotachysterol], the cell viability under setting [1] was 127%. Take `COc1ccc2c(c1)C(=O)N(CCc1ccc(S(=O)(=O)NC(=O)NC3CCCCC3)cc1)C(=O)C2(C)C` [Gliquidone]: under “compound concentration: 3 uM”, the cell viability was determined as 66.5%.

Turning to `CCCCCCCCCCOc1cc2c(O)c(C(=O)OCC)cnc2cc1OCC`, the cell viability (compound concentration: 3 uM) was determined as 109%. The same measure, in the same setting: the result for `CCCCC1C(=O)N(c2ccccc2)N(c2ccccc2)C1=O` reads 111%. Same read-out and setting: for `CCCCC1C(=O)N(c2ccccc2)N(c2ccccc2)C1=O` [Phenylbutazone] the value was 94.4 ± 12%; for `N=C(N)SCCN` [2-(2-Aminoethyl)isothiourea dihydrobromide], 104%; for `N=C(N)N1CCc2ccccc2C1` [Debrisoquin], 106%.

As for `N=C(N)N1CCc2ccccc2C1`, the cell viability (compound concentration: 3 uM) is 113%. `N=C(N)N1CCc2ccccc2C1` [Debrisoquin sulfate]: where the note is “compound concentration: 3 uM”, the cell viability is 94.7 ± 23%. As for `CC1=CC(=O)c2ccccc2C1=O`, the cell viability (compound concentration: 3 uM) was 103%. In the case of `CC(=O)/N=c1/sc(S(N)(=O)=O)nn1C` [Methazolamide], the cell viability (compound concentration: 3 uM) amounted to 77.9%. Still for that read-out and setting: for `CC(=O)/N=c1/sc(S(N)(=O)=O)nn1C` the value was 109%.

Consider `NC(N)=NCCC[C@H](NC(=O)c1ccccc1)C(=O)O` [N-à-Benzoyl-L-arginine], for which the cell viability under setting [1] stood at 96.7%. In the case of `O=C(O)Cc1ccc(O)c(O)c1` [3,4-Dihydroxyphenylacetic acid], the cell viability (compound concentration: 3 uM) was found to be 96.9%. Regarding `CCCc1nc2c(C)cc(-c3nc4ccccc4n3C)cc2n1Cc1ccc(-c2ccccc2C(=O)O)cc1`, the cell viability (compound concentration: 3 uM) was found to be 93.6%.

As to `CCCc1nc2c(C)cc(-c3nc4ccccc4n3C)cc2n1Cc1ccc(-c2ccccc2C(=O)O)cc1` [Telmisartan], the cell viability (compound concentration: 3 uM) is 86.4 ± 1.3%. On the same count and under the same terms, the result for `CCCCOC(=O)c1ccc(O)cc1` [Butylparaben] reads 92.4%. The same measure, in the same setting: the result for `CCCCOC(=O)c1ccc(O)cc1` reads 105%; that for `C#C[C@]1(OC(C)=O)CC[C@H]2[C@@H]3CCC4=CC(=O)CC[C@@H]4[C@H]3CC[C@@]21C`, 110%.

On to `COCCCOc1cc(C[C@@H](C[C@H](N)[C@@H](O)C[C@H](C(=O)NCC(C)(C)C(N)=O)C(C)C)C(C)C)ccc1OC`, for which, under “compound concentration: 3 uM”, the cell viability amounted to 110%.

On to `CNCCCCOc1ccccc1Cc1ccccc1` [Bifemelane], for which the cell viability (compound concentration: 3 uM) is 94.4%. On the same count and under the same terms, for `O=C(O)Cc1cc(I)c(Oc2ccc(O)c(I)c2)c(I)c1` [Tiratricol, 3,3',5-triiodothyroacetic acid] the value was 97.3%; for `O=C(O)Cc1cc(I)c(Oc2ccc(O)c(I)c2)c(I)c1`, 112%; for `COCCCOc1ccnc(C[S+]([O-])c2nc3ccccc3[nH]2)c1C` (stereo unspecified), 96.3% and 93.9%. `COCCCOc1ccnc(C[S+]([O-])c2nc3ccccc3[nH]2)c1C` (stereo unspecified) [Rabeprazole]: the cell viability (compound concentration: 3 uM) worked out at 117%. With `CCN(CC)CCCN(c1ccccc1)C1Cc2ccccc2C1` [Aprindine hydrochloride], the cell viability (compound concentration: 3 uM) was found to be 109%. For the compound `CC(Cc1ccc(O)c(O)c1)C(C)Cc1ccc(O)c(O)c1` (stereo unspecified) [Nordihydroguaiaretic acid], the cell viability under setting [1] turned out to be 91.6%. With `O=C(CCCCC(=O)Nc1c(I)cc(I)c(C(=O)O)c1I)Nc1c(I)cc(I)c(C(=O)O)c1I` [Iodipamide], the cell viability (compound concentration: 3 uM) turned out to be 80.5%.

Consider `O=C(CCCCC(=O)Nc1c(I)cc(I)c(C(=O)O)c1I)Nc1c(I)cc(I)c(C(=O)O)c1I`, for which the cell viability (compound concentration: 3 uM) is 103%. Same read-out and setting: for `c1ccc(CN2CCC3(CCCc4ccccc43)CC2)cc1` [L-687,384 hydrochloride] the value was 97.3%; for `CNCC[C@@H](Oc1ccccc1C)c1ccccc1`, 108%; for `CNCC[C@@H](Oc1ccccc1C)c1ccccc1` [Tomoxetine hydrochloride], 113%. Take `CNCC[C@@H](Oc1ccccc1C)c1ccccc1` [Tomoxetine]: the cell viability (compound concentration: 3 uM) stood at 119%. The same measure, in the same setting: the result for `Cc1ccc(C(=O)C(C)CN2CCCCC2)cc1` (stereo unspecified) reads 110%.

For `CSc1nc(N)c2ncn([C@@H]3O[C@H](COP(=O)(O)OP(=O)(O)O)[C@H](O)C3O)c2n1` (stereo partly specified), the cell viability (compound concentration: 3 uM) came to 114%. Same read-out and setting: the result for `Nc1c(S(=O)(=O)O)cc(Nc2ccc(Nc3nc(Cl)nc(Nc4cccc(S(=O)(=O)O)c4)n3)c(S(=O)(=O)O)c2)c2c1C(=O)c1ccccc1C2=O` [Reactive Blue 2] reads 122%; that for `NS(=O)(=O)C#Cc1ccccc1` [Pifithrin-mu], 107%. `C[C@@H]1O[C@@H](O[C@H]2[C@H](Oc3cc(O)c4c(c3)O[C@H](c3ccc(O)cc3)CC4=O)O[C@H](CO)[C@@H](O)[C@@H]2O)[C@H](O)[C@H](O)[C@H]1O` [Naringin]: the cell viability under setting [1] was 102%. Consider `CC(=O)OCC(=O)[C@@]12OC3(CCCC3)O[C@@H]1C[C@H]1[C@@H]3CCC4=CC(=O)C=C[C@]4(C)[C@@]3(F)[C@@H](O)C[C@@]12C`, for which, under “compound concentration: 3 uM”, the cell viability came out at 109%.

Regarding `CC(=O)OCC(=O)[C@@]12OC3(CCCC3)O[C@@H]1C[C@H]1[C@@H]3CCC4=CC(=O)C=C[C@]4(C)[C@@]3(F)[C@@H](O)C[C@@]12C` [Amcinonide], the cell viability (compound concentration: 3 uM) was determined as 102%.

Regarding `N=C(N=C(N)N)N1CCOCC1` [Moroxidine hydrochloride], the cell viability (compound concentration: 3 uM) came to 103%. On the same count and under the same terms, the result for `CN1[C@@H]2CC[C@H]1C[C@@H](OC(c1ccccc1)c1ccccc1)C2` reads 113%; that for `CN1[C@@H]2CC[C@H]1C[C@@H](OC(c1ccccc1)c1ccccc1)C2` [Benztropine mesylate], 102 ± 12%. With `CC(=O)Nc1ccc(OCC(O)CNC(C)C)cc1` (stereo unspecified) [Practolol], the cell viability (compound concentration: 3 uM) was found to be 95.2 ± 15%. As for `CCCC(=O)Nc1ccc(OCC(O)CNC(C)C)c(C(C)=O)c1` (stereo unspecified) [Acebutolol hydrochloride], the cell viability (compound concentration: 3 uM) stood at 100%. On the same count and under the same terms, the result for `CCCC(=O)Nc1ccc(OCC(O)CNC(C)C)c(C(C)=O)c1` (stereo unspecified) reads 105%; that for `C[C@@H]1O[C@@H](OC[C@H]2O[C@@H](Oc3c(-c4ccc(O)c(O)c4)oc4cc(O)cc(O)c4c3=O)[C@H](O)[C@@H](O)[C@@H]2O)[C@H](O)[C@H](O)[C@H]1O`, 97.4%. As for `C[C@@H]1O[C@@H](OC[C@H]2O[C@@H](Oc3c(-c4ccc(O)c(O)c4)oc4cc(O)cc(O)c4c3=O)[C@H](O)[C@@H](O)[C@@H]2O)[C@H](O)[C@H](O)[C@H]1O` [Rutin], the cell viability under setting [1] is 99.5%.

Consider `C[C@@H]1O[C@@H](OC[C@H]2O[C@@H](Oc3c(-c4ccc(O)c(O)c4)oc4cc(O)cc(O)c4c3=O)[C@H](O)[C@@H](O)[C@@H]2O)[C@H](O)[C@H](O)[C@H]1O` [Rutine], for which, under setting [1], the cell viability was 86.9%. Turning to `C[C@@H]1O[C@@H](OC[C@H]2O[C@@H](Oc3c(-c4ccc(O)c(O)c4)oc4cc(O)cc(O)c4c3=O)[C@H](O)[C@@H](O)[C@@H]2O)[C@H](O)[C@H](O)[C@H]1O` [RUTOSIDE (rutin)], under “compound concentration: 3 uM”, the cell viability stood at 111%.
